Test results: paper PMC8096244

Sequences of proteins named here, by UniProt entry; tags and fusion partners are left off.
UniProt P51979: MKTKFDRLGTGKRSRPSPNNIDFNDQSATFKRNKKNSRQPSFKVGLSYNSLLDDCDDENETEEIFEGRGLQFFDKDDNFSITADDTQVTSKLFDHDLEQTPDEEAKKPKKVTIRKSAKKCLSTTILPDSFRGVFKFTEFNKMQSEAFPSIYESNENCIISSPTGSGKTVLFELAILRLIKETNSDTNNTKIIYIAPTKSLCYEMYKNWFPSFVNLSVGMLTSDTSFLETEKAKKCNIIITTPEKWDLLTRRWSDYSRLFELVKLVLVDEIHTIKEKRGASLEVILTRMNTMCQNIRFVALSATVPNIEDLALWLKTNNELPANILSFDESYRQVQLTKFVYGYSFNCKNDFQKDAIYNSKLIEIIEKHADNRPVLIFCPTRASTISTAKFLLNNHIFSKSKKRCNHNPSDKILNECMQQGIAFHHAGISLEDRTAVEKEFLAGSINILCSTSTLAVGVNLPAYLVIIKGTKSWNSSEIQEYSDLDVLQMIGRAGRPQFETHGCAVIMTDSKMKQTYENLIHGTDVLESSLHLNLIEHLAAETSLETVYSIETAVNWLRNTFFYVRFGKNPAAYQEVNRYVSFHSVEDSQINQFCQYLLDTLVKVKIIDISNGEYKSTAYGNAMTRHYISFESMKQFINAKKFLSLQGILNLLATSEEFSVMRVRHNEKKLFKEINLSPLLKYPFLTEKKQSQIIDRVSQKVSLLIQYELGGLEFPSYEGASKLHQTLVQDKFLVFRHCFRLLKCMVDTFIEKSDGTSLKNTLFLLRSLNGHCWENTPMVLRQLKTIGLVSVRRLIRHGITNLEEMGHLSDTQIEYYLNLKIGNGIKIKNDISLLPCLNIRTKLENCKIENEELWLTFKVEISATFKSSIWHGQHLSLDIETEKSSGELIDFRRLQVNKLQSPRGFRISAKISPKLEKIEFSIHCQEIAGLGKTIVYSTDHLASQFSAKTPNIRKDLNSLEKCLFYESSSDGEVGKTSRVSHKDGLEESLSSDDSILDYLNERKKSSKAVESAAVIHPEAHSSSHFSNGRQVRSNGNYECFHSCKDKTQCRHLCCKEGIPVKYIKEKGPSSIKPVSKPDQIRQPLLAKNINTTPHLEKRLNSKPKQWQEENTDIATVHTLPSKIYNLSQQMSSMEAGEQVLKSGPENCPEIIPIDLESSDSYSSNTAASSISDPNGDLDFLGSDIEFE

Molecular target: Mer3-TAP (S. cerevisiae) (UniProt P51979)
Test: affinity purification with mass spectrometry; Mer3-TAP captured on IgG Sepharose from lysate of cells at 5 h of synchronized meiosis (TAP lysis buffer, 300 mM NaCl, 0.5% NP-40, 4°C); on-bead digestion, label-free quantitative MS, four replicates, against an untagged Mer3 strain

B1: Rfc1 (protein, UniProt P38630 1-861)
chain: MVNISDFFGKNKKSVRSSTSRPTRQVGSSKPEVIDLDTESDQESTNKTPKKMPVSNVIDVSETPEGEKKLPLPAKRKASSPTVKPASSKKTKPSSKSSDSASNITAQDVLDKIPSLDLSNVHVKENAKFDFKSANSNADPDEIVSEIGSFPEGKPNCLLGLTIVFTGVLPTLERGASEALAKRYGARVTKSISSKTSVVVLGDEAGPKKLEKIKQLKIKAIDEEGFKQLIAGMPAEGGDGEAAEKARRKLEEQHNIATKEAELLVKKEEERSKKLAATRVSGGHLERDNVVREEDKLWTVKYAPTNLQQVCGNKGSVMKLKNWLANWENSKKNSFKHAGKDGSGVFRAAMLYGPPGIGKTTAAHLVAQELGYDILEQNASDVRSKTLLNAGVKNALDNMSVVGYFKHNEEAQNLNGKHFVIIMDEVDGMSGGDRGGVGQLAQFCRKTSTPLILICNERNLPKMRPFDRVCLDIQFRRPDANSIKSRLMTIAIREKFKLDPNVIDRLIQTTRGDIRQVINLLSTISTTTKTINHENINEISKAWEKNIALKPFDIAHKMLDGQIYSDIGSRNFTLNDKIALYFDDFDFTPLMIQENYLSTRPSVLKPGQSHLEAVAEAANCISLGDIVEKKIRSSEQLWSLLPLHAVLSSVYPASKVAGHMAGRINFTAWLGQNSKSAKYYRLLQEIHYHTRLGTSTDKIGLRLDYLPTFRKRLLDPFLKQGADAISSVIEVMDDYYLTKEDWDSIMEFFVGPDVTTAIIKKIPATVKSGFTRKYNSMTHPVAIYRTGSTIGGGGVGTSTSTPDFEDVVDADDNPVPADDEETQDSSTDLKKDKLIKQKAKPTKRKTATSKPGGSKKRKTKA
- binding: binds

Results are given in words; binding and its absence hold for the method and conditions named. Binding seen in cells or lysates may run through a third protein. These calls come from enrichment with a bait or labelling near it, and not all partners need be listed.
